Data from publication PMC3068998.
Read-outs that look alike come from different tables or passages of the source. Results are given in words; binding and its absence hold for the method and conditions named. Binding seen in cells or lysates may run through a third protein. Some results given as binding are weak or reduced against the parent protein; the word gives no strength.

The chains behind the UniProt entries cited, without tags or fusion partners. Residues count along the entry.
UniProt Q00496, residues 820-1251: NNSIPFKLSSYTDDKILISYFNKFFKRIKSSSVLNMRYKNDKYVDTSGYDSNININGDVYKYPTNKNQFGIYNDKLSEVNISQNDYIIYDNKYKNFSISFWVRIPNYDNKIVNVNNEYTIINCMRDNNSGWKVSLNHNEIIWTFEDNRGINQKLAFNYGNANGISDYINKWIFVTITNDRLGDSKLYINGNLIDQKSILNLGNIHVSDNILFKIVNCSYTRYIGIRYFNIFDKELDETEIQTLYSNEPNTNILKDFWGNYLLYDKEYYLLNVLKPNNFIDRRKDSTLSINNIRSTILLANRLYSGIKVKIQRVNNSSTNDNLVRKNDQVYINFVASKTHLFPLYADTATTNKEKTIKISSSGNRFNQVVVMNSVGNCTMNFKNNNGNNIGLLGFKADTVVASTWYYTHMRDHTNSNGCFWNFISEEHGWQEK
UniProt P19321, residues 859-1276: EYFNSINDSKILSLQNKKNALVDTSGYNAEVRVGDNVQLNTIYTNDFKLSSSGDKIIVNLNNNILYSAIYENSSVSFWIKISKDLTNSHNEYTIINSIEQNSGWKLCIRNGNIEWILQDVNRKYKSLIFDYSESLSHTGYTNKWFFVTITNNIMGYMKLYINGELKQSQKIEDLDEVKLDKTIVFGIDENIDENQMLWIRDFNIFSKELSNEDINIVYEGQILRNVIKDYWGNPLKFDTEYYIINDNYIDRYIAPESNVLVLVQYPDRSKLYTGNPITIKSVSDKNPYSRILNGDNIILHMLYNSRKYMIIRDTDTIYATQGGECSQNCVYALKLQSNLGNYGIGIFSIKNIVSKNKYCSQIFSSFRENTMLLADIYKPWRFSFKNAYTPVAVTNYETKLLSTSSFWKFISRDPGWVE
UniProt Q02563: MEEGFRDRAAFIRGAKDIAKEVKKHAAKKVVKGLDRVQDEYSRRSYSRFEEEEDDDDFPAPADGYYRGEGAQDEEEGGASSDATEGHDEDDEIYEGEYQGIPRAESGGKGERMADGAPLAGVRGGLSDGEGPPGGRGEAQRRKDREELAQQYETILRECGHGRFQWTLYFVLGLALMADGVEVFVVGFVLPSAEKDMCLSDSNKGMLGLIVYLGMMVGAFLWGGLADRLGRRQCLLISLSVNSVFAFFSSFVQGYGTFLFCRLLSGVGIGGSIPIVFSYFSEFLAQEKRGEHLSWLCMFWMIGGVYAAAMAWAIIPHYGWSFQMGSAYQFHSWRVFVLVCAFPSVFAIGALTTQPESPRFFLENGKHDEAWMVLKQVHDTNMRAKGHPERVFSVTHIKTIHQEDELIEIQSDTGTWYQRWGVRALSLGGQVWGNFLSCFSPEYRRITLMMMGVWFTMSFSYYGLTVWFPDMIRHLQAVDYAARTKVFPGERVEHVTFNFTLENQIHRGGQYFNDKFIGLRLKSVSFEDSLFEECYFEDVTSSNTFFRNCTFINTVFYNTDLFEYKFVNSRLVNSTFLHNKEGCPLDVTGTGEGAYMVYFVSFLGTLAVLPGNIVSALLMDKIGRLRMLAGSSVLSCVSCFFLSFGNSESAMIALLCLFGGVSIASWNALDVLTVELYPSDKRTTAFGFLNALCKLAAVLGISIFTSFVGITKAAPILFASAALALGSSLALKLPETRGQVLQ
UniProt Q63564: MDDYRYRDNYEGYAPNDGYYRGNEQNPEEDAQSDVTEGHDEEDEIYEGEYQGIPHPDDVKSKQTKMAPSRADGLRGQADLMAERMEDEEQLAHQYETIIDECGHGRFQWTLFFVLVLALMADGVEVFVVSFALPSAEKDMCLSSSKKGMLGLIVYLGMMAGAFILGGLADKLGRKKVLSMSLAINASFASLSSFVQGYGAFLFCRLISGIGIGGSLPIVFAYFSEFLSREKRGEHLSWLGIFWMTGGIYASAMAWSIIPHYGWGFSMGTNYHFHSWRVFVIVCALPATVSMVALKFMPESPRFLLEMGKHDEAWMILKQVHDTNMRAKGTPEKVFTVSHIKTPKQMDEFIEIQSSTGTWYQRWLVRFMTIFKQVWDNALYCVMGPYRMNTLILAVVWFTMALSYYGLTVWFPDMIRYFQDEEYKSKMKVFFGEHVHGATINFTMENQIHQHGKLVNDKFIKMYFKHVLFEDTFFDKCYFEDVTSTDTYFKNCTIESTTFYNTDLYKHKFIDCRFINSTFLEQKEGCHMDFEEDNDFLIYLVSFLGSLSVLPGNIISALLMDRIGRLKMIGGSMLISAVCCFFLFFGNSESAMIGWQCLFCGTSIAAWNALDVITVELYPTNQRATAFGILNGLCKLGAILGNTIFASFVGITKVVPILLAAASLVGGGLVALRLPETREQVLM
UniProt P07825: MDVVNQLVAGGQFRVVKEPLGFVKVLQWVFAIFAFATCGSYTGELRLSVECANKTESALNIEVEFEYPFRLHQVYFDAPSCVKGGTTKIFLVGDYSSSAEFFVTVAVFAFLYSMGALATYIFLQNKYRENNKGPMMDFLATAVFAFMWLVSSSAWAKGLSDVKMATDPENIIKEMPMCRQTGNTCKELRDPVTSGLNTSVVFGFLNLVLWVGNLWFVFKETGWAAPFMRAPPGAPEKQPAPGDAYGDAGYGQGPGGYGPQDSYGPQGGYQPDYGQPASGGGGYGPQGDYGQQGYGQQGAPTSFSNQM

B1: synaptogyrin I (endogenous, rat brain) (protein, UniProt Q62876 1-234)
chain: MEGGAYGAGKAGGAFDPYTLVRQPHTILRVVSWVFSIVVFGSIVNEGYLNNPEEEEEFCIYNRNPNACSYGVTVGVLAFLTCLVYLALDVYFPQISSVKDRKKAVLSDIGVSAFWAFFWFVGFCFLANQWQVSKPKDNPLNEGTDAARAAIAFSFFSIFTWAGQAVLAFQRYQIGADSALFSQDYMDPSQDSSMPYAPYVEPSAGSDPTGMGGTYQHPANAFDAEPQGYQSQGY

Columns and labels:
Experiment in all cases: pull-down; only the target purified
[1] = target: GST-fusion HCR of BoNT/E (BoNT/E-HCR) (UniProt Q00496)
[2] = target: GST-fusion receptor binding domain of BoNT/D (BoNT/D-HCR) (UniProt P19321)
[3] = target: GST-fusion HCR of BoNT/E (BoNT/E-HCR) (UniProt Q00496); remark: listed apart in the source
[4] = target: GST-fusion receptor binding domain of BoNT/D (BoNT/D-HCR) (UniProt P19321); remark: listed apart in the source

Molecule	binding [1]	binding [2]	binding [3]	binding [4]
SV2A (endogenous, rat brain) (from UniProt Q02563 1-742)	binds			
SV2B (endogenous, rat brain) (from UniProt Q63564 1-683)	no binding	binds		
synaptophysin (endogenous, rat brain) (from UniProt P07825 1-307)	no binding	no binding		
B1			no binding	no binding
